# The list shows a part of the results.
# What was measured:
# Assay in all cases: glycan array binding signal (z-score within array); higher = stronger binding
# Settings in all cases: glycan notation: IUPAC condensed, linker removed
# [1] = biological target: Fuc(a1-2)[GalNAc(a1-3)]Gal(b1-4)[Fuc(a1-3)]GlcNAc
# How it was run: (§1)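 Negative Z-scores can be read as non-binding. The Z-score is calculated within each array and then averaged across arrays of one protein sequence at different concentrations or buffers and across linkers. Arrays, 3228 in all, were curated from the Consortium for Functional Glycomics database and kept only where the protein sequence was available.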
# [2] = biological target: Fuc(a1-2)[GalNAc(a1-3)]Gal(b1-4)[Fuc(a1-3)]GlcNAc(b1-3)GalNAc
# How it was run: as §1
# [3] = biological target: Fuc(a1-2)[GalNAc(a1-4)]Gal(b1-4)GlcNAc
# How it was run: as §1
# [4] = biological target: Fuc(a1-2)[GalNAc(b1-3)]Gal
# How it was run: as §1
# [5] = biological target: Fuc(a1-3)GlcNAc
# How it was run: as §1
# [6] = biological target: Fuc(a1-3)[Gal(b1-4)]Glc6S
# How it was run: as §1
# [7] = biological target: Fuc(a1-3)[Gal(b1-4)]GlcNAc
# How it was run: as §1
# [8] = biological target: Fuc(a1-3)[Gal(b1-4)]GlcNAc(b1-2)Man(a1-3)[Fuc(a1-3)[Gal(b1-4)]GlcNAc(b1-2)Man(a1-6)]Man(b1-4)GlcNAc(b1-4)GlcNAc
# How it was run: as §1
# [9] = biological target: Fuc(a1-3)[Gal(b1-4)]GlcNAc(b1-2)Man(a1-3)[Fuc(a1-3)[Gal(b1-4)]GlcNAc(b1-2)Man(a1-6)]Man(b1-4)GlcNAc(b1-4)[Fuc(a1-6)]GlcNAc
# How it was run: as §1
# [10] = biological target: Fuc(a1-3)[Gal(b1-4)]GlcNAc(b1-3)Gal(b1-3)[Fuc(a1-4)]GlcNAc
# How it was run: as §1
# [11] = biological target: Fuc(a1-3)[Gal(b1-4)]GlcNAc(b1-3)GalNAc
# How it was run: as §1
# [12] = biological target: Fuc(a1-3)[Gal(b1-4)]GlcNAc(b1-4)Gal(b1-4)[Fuc(a1-3)]GlcNAc
# How it was run: as §1
# [13] = biological target: Fuc(a1-3)[Gal(b1-4)]GlcNAc(b1-4)Gal(b1-4)[Fuc(a1-3)]GlcNAc(b1-4)Gal(b1-4)[Fuc(a1-3)]GlcNAc
# How it was run: as §1
# [14] = biological target: Fuc(a1-3)[Gal(b1-4)]GlcNAc(b1-6)GalNAc
# How it was run: as §1
# [15] = biological target: Fuc(a1-3)[Gal(b1-4)]GlcNAc(b1-6)[Gal(b1-3)GlcNAc(b1-3)]Gal(b1-4)Glc
# How it was run: as §1
# [16] = biological target: Fuc(a1-3)[Gal(b1-4)]GlcNAc(b1-6)[Neu5Ac(a2-3)Gal(b1-3)]GalNAc
# How it was run: as §1
# [17] = biological target: Fuc(a1-3)[Gal(b1-4)]GlcNAc6S
# How it was run: as §1
# [18] = biological target: Fuc(a1-3)[Gal3S(b1-4)]GlcNAc
# How it was run: as §1
# [19] = biological target: Fuc(a1-3)[Gal3S(b1-4)]GlcNAc6S
# How it was run: as §1
# [20] = biological target: Fuc(a1-3)[GalNAc(b1-4)]GlcNAc
# How it was run: as §1
# [21] = biological target: Fuc(a1-4)GlcNAc
# How it was run: as §1
# [22] = biological target: Fuc(b1-3)GlcNAc
# How it was run: as §1
# [23] = biological target: Gal(a1-2)Gal
# How it was run: as §1
# [24] = biological target: Gal(a1-3)Gal
# How it was run: as §1
# [25] = biological target: Gal(a1-3)Gal(b1-3)GlcNAc
# How it was run: as §1
# [26] = biological target: Gal(a1-3)Gal(b1-3)GlcNAc(b1-2)Man(a1-3)[Gal(a1-3)Gal(b1-3)GlcNAc(b1-2)Man(a1-6)]Man(b1-4)GlcNAc(b1-4)GlcNAc
# How it was run: as §1
# [27] = biological target: Gal(a1-3)Gal(b1-3)GlcNAc(b1-3)GalNAc
# How it was run: as §1
# [28] = biological target: Gal(a1-3)Gal(b1-3)[Fuc(a1-4)]GlcNAc(b1-2)Man(a1-3)[Gal(a1-3)Gal(b1-3)[Fuc(a1-4)]GlcNAc(b1-2)Man(a1-6)]Man(b1-4)GlcNAc(b1-4)GlcNAc
# How it was run: as §1
# [29] = biological target: Gal(a1-3)Gal(b1-4)Glc
# How it was run: as §1
# [30] = biological target: Gal(a1-3)Gal(b1-4)GlcNAc
# How it was run: as §1
# [31] = biological target: Gal(a1-3)Gal(b1-4)GlcNAc(b1-3)GalNAc
# How it was run: as §1
# [32] = biological target: Gal(a1-3)Gal(b1-4)[Fuc(a1-3)]GlcNAc
# How it was run: as §1
# [33] = biological target: Gal(a1-3)Gal(b1-4)[Fuc(a1-3)]GlcNAc(b1-2)Man(a1-3)[Gal(a1-3)Gal(b1-4)[Fuc(a1-3)]GlcNAc(b1-2)Man(a1-6)]Man(b1-4)GlcNAc(b1-4)GlcNAc
# How it was run: as §1
# [34] = biological target: Gal(a1-3)GalNAc
# How it was run: as §1
# [35] = biological target: Gal(a1-3)[Gal(a1-4)]Gal(b1-4)GlcNAc
# How it was run: as §1
# [36] = biological target: Gal(a1-4)Gal(b1-3)GlcNAc(b1-2)Man(a1-3)[Gal(a1-4)Gal(b1-3)GlcNAc(b1-2)Man(a1-6)]Man(b1-4)GlcNAc(b1-4)GlcNAc
# How it was run: as §1
# [37] = biological target: Gal(a1-4)Gal(b1-4)Glc
# How it was run: as §1
# [38] = biological target: Gal(a1-4)Gal(b1-4)GlcNAc
# How it was run: as §1
binder,measurement,setting,value
"MFG-E8 (Homo sapiens), Q08431 (protein) MPRPRLLAALCGALLCAPSLLVALDICSKNPCHNGGLCEEISQEVRGDVFPSYTCTCLKGYAGNHCETKCVEPLGLENGNIANSQIAASSVRVTFLGLQHWVPELARLNRAGMVNAWTPSSNDDNPWIQVNLLRRMWVTGVVTQGASRLASHEYLKAFKVAYSLNGHEFDFIHDVNKKHKEFVGNWNKNAVHVNLFETPVEAQYVRLYPTSCHTACTLRFELLGCELNGCANPLGLKNNSIPDKQITASSSYKTWGLHLFSWNPSYARLDKQGNFNAWVAGSYGNDQWLQVDLGSSKEVTGIITQGARNFGSVQFVASYKVAYSNDSANWTEYQDPRTGSSKIFPGNWDNHSHKKNLFETPILARYVRILPVAWHNRIALRLELLGC",glycan array binding signal (z-score),[1],0.041
same,glycan array binding signal (z-score),[2],1.58
same,glycan array binding signal (z-score),[3],-0.634
same,glycan array binding signal (z-score),[4],-0.498
same,glycan array binding signal (z-score),[5],-0.499
same,glycan array binding signal (z-score),[6],-0.53
same,glycan array binding signal (z-score),[7],-0.5
same,glycan array binding signal (z-score),[8],-0.086
same,glycan array binding signal (z-score),[9],1.41
same,glycan array binding signal (z-score),[10],-0.607
same,glycan array binding signal (z-score),[11],0.876
same,glycan array binding signal (z-score),[12],-0.681
same,glycan array binding signal (z-score),[13],-0.486
same,glycan array binding signal (z-score),[14],0.336
same,glycan array binding signal (z-score),[15],-0.297
same,glycan array binding signal (z-score),[16],0.892
same,glycan array binding signal (z-score),[17],-0.161
same,glycan array binding signal (z-score),[18],-0.035
same,glycan array binding signal (z-score),[19],0.798
same,glycan array binding signal (z-score),[20],-0.015
same,glycan array binding signal (z-score),[21],-0.75
same,glycan array binding signal (z-score),[22],-0.777
same,glycan array binding signal (z-score),[23],-0.558
same,glycan array binding signal (z-score),[24],-0.48
same,glycan array binding signal (z-score),[25],-0.722
same,glycan array binding signal (z-score),[26],0.828
same,glycan array binding signal (z-score),[27],0.46
same,glycan array binding signal (z-score),[28],0.071
same,glycan array binding signal (z-score),[29],-0.592
same,glycan array binding signal (z-score),[30],-0.808
same,glycan array binding signal (z-score),[31],-0.233
same,glycan array binding signal (z-score),[32],-0.561
same,glycan array binding signal (z-score),[33],0.717
same,glycan array binding signal (z-score),[34],-0.456
same,glycan array binding signal (z-score),[35],-0.516
same,glycan array binding signal (z-score),[36],-0.427
same,glycan array binding signal (z-score),[37],0.09
same,glycan array binding signal (z-score),[38],-0.441

# Given tab-delimited: part of the list above
binder	measurement	setting	value
MFG-E8 (Homo sapiens), Q08431 (protein) MPRPRLLAALCGALLCAPSLLVALDICSKNPCHNGGLCEEISQEVRGDVFPSYTCTCLKGYAGNHCETKCVEPLGLENGNIANSQIAASSVRVTFLGLQHWVPELARLNRAGMVNAWTPSSNDDNPWIQVNLLRRMWVTGVVTQGASRLASHEYLKAFKVAYSLNGHEFDFIHDVNKKHKEFVGNWNKNAVHVNLFETPVEAQYVRLYPTSCHTACTLRFELLGCELNGCANPLGLKNNSIPDKQITASSSYKTWGLHLFSWNPSYARLDKQGNFNAWVAGSYGNDQWLQVDLGSSKEVTGIITQGARNFGSVQFVASYKVAYSNDSANWTEYQDPRTGSSKIFPGNWDNHSHKKNLFETPILARYVRILPVAWHNRIALRLELLGC	glycan array binding signal (z-score)	[19]	0.798
same	glycan array binding signal (z-score)	[21]	-0.75

# Source: the supplement of paper PMC8728848
